From PMC11036628
No constants are given. Whether binding was seen depends on the method and setting. In cells and extracts the contact can be indirect. Some binding calls cover weakened binding; strength is not graded here. Each block holds one molecule with its values, some of them ahead of it.

Sequences of proteins named here, by UniProt entry; tags and fusion partners are left off.
UniProt Q2TBA3: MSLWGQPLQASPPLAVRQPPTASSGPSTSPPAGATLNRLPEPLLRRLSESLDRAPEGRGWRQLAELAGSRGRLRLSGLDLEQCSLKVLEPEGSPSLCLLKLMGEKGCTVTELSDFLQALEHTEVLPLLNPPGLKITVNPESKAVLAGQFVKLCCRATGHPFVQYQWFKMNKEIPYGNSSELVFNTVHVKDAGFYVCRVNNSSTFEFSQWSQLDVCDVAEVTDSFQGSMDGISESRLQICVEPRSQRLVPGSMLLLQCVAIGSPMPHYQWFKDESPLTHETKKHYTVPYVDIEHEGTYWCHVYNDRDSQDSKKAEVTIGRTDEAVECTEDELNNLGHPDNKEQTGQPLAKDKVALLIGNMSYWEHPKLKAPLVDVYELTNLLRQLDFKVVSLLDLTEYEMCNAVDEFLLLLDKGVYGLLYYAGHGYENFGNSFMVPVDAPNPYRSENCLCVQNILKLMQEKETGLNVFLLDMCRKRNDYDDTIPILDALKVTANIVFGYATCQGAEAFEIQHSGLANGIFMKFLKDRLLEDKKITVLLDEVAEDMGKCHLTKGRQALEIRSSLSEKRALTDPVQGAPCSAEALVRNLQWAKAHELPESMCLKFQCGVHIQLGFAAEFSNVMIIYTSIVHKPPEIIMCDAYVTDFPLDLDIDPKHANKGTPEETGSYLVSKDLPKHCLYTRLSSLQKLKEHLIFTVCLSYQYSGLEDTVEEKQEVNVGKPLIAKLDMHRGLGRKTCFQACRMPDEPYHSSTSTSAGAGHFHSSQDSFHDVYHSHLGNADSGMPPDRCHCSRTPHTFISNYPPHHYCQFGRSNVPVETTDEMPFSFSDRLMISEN

Target: T1, Caspase activation and recruitment domain-containing protein 9 (mouse (endogenous in bone marrow-derived dendritic cells)) (UniProt A2AIV8)
T1 sequence: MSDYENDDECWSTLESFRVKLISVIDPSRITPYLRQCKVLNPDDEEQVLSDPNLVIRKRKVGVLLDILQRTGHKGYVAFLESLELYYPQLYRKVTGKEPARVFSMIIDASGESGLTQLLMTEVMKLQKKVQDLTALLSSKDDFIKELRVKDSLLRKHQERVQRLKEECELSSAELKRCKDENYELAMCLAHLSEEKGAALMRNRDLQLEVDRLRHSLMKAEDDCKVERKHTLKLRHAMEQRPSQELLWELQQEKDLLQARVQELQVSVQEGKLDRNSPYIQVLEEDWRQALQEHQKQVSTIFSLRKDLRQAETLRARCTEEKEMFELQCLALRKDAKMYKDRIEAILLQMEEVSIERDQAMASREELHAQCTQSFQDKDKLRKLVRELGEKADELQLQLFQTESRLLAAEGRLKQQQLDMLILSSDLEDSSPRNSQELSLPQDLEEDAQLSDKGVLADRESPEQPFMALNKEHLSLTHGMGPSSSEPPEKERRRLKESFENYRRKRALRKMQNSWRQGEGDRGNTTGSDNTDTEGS
Assay: co-IP; mBMDCs lysed in RIPA buffer, pre-cleared, anti-CARD9 antibody overnight at 4 °C, Protein G-Sepharose; blots for Bcl10 and MALT1; tumour-conditioned cells with or without NLGP, Laminarin, Dectin-1 siRNA, control siRNA

binding: binds
Molecule: Mucosa-associated lymphoid tissue lymphoma translocation protein 1 (from UniProt Q2TBA3 1-832)

binding: binds
B1: B cell lymphoma/leukemia 10 (protein, UniProt Q9Z0H7 1-233)
chain: MEAPAPSLTEEDLTEVKKDALENLRVYLCEKIIAERHFDHLRAKKILSREDTEEISCRTSSRKRAGKLLDYLQENPRGLDTLVESIRREKTQSFLIQKITDEVLKLRNIKLEHLKGLKCSSCEPFAAGATNNLSRCNSDESNLSEKQRASTVMYHPEGESSTAPFFSMASSLNLPVLEVGRTENSSFSSATLPRPGDPGAPPLPPDLRLEEGGSCGNSSEMFLPLRSRALSRQ
